Test results published in US20220380374A1, “1,4-DIHYDROBENZO[D]PYRAZOLO[3,4-F][1,3]DIAZEPINE DERIVATIVES AND RELATED COMPOUNDS AS LRRK2, NUAK1 AND/OR TYK2 KINASE MODULATORS FOR THE TREATMENT OF E.G. AUTOIMMUNE DISEASE” (Origenis GMBH, priority 2019, published 2022).
Some entries share one result that the patent states for a list of compounds.

By UniProt entry, the sequences of proteins in these tests, tags left out. Where a name states a change or a piece, a line headed by the entry shows the natural chain unless it says otherwise.
UniProt Q5S007: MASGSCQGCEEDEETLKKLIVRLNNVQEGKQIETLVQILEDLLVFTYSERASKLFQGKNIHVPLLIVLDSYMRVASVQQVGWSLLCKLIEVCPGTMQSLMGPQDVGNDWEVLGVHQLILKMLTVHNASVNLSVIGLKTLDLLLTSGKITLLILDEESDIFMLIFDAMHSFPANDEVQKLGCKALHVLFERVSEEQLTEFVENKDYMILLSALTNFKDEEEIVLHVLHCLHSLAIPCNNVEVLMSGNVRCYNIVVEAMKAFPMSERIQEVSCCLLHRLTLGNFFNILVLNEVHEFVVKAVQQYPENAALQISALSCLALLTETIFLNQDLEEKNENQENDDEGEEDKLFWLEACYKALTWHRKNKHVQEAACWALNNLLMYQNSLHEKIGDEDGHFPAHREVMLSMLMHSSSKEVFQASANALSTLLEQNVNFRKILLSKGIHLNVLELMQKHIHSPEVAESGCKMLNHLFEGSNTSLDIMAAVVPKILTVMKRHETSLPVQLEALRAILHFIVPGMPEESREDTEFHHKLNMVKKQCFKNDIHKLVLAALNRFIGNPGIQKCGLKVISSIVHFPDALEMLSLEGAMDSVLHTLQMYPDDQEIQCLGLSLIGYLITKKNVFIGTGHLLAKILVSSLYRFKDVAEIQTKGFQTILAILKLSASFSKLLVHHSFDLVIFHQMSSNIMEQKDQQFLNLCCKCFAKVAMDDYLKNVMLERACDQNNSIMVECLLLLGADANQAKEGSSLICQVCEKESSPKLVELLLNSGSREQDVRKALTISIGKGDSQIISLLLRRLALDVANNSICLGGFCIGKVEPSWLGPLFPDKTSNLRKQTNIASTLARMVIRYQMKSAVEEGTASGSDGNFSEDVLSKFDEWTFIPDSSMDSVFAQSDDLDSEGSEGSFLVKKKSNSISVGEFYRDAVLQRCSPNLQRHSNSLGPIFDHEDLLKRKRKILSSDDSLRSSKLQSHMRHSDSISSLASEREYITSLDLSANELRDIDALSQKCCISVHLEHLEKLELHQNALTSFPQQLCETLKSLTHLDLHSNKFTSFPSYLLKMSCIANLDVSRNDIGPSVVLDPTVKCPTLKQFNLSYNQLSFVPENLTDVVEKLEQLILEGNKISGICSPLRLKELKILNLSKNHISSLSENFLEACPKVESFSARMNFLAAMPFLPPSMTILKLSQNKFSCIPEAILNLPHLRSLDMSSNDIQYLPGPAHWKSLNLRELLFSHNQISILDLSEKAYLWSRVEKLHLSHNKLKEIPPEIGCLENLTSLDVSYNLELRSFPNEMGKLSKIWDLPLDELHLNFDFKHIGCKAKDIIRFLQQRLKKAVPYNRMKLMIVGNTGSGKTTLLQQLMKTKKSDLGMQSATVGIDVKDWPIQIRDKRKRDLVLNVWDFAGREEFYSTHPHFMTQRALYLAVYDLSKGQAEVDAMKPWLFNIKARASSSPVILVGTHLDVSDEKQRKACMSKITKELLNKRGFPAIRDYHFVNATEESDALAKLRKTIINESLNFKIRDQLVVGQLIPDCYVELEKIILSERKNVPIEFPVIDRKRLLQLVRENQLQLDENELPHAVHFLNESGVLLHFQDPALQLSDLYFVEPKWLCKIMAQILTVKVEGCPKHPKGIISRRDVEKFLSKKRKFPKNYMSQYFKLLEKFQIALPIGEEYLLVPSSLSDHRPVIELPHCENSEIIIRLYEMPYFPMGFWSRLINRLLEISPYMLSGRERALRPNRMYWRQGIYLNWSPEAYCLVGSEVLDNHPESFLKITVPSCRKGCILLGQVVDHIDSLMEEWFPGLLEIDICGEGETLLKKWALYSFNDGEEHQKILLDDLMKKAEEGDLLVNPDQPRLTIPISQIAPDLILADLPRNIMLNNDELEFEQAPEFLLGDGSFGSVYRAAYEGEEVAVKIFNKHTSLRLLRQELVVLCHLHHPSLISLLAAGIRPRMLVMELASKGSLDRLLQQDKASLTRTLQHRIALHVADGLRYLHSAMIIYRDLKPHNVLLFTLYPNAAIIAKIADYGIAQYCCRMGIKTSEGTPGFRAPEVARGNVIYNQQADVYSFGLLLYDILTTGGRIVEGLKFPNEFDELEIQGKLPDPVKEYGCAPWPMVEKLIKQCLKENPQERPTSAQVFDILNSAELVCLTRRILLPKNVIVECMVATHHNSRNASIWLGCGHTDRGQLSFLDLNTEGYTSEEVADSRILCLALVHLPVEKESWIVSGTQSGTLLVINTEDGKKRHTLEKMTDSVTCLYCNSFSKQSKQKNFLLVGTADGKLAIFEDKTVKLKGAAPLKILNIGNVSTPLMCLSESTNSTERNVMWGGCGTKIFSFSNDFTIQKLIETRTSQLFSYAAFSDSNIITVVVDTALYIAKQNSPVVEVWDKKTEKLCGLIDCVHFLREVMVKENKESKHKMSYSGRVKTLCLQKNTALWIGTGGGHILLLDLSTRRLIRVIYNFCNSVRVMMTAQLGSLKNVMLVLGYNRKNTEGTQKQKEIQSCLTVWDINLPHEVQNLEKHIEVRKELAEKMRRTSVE

Molecular target: T1, LRRK2 (Wt) and LRRK2 (G2019) (Homo sapiens, UniProt Q5S007)
T1 construct: fused on or other part: GST tag, inferred from the Eu-Anti-GST antibody used for detection
Experiment: TR-FRET LanthaScreen Eu Kinase Binding Assay, LRRK2
Conditions: one value class stated for wt and G2019 LRRK2 together; 10 nM Kinase Tracer 236; read-out: IC50, inhibitory activity toward LRRK2 (Wt) and LRRK2 (G2019)

SMILES: CN(C)C(=O)Oc1ccc2c(c1)-c1[nH]ncc1NC(c1c(F)cccc1F)=N2 [Compound 136, 5-(2,6-difluorophenyl)-1,4-dihydrobenzo[d]pyrazolo[3,4-f][1,3]diazepin-9-yl dimethylcarbamate]
- IC50: < 10 nM
